This is an account of results in paper PMC10830871.

Amino acid sequences for entries named in this document (tags omitted). A change or cut given only in a name is not applied to a line headed by its entry. Chains listed by the source or under a name are the forms on record and can include a tag or linker.
UniProt Q13619: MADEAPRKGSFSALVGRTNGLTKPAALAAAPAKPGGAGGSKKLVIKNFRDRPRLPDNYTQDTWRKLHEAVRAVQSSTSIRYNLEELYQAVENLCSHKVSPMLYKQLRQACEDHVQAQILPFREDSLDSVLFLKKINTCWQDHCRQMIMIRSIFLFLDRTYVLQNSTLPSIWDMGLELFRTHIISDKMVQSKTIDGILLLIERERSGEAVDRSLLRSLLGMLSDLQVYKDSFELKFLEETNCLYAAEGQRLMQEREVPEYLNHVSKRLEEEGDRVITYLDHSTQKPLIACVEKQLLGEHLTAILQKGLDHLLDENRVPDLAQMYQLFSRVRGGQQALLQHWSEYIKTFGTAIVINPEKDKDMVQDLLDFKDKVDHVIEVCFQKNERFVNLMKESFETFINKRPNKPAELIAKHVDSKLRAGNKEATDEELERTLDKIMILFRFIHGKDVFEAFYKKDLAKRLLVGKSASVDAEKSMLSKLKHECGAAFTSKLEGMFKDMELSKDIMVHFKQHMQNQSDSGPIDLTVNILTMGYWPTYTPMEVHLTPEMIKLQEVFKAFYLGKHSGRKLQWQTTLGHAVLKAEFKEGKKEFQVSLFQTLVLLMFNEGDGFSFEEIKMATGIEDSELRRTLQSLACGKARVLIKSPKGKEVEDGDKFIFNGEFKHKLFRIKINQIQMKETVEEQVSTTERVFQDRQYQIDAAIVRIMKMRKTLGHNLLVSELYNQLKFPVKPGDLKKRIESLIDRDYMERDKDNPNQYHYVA
UniProt Q99873: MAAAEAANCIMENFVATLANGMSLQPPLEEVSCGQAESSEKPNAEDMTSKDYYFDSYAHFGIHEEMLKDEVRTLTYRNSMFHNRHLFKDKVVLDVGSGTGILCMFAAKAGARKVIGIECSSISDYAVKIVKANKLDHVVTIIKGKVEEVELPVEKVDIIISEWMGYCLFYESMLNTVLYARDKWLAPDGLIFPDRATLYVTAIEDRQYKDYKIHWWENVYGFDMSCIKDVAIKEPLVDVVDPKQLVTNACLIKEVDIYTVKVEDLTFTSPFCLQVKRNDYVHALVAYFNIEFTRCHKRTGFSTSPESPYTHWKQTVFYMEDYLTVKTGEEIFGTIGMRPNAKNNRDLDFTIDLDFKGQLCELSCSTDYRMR
UniProt Q96LA8: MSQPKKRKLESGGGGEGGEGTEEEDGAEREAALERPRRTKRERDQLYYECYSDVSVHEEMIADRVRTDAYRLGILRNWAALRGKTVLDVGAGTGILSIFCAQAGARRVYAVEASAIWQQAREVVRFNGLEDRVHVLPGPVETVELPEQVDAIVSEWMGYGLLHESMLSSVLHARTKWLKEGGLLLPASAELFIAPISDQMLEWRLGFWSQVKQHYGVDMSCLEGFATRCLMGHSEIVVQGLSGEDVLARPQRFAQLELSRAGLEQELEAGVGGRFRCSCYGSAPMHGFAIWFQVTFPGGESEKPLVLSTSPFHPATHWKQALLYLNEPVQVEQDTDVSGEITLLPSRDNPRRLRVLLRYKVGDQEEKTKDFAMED
UniProt Q12905: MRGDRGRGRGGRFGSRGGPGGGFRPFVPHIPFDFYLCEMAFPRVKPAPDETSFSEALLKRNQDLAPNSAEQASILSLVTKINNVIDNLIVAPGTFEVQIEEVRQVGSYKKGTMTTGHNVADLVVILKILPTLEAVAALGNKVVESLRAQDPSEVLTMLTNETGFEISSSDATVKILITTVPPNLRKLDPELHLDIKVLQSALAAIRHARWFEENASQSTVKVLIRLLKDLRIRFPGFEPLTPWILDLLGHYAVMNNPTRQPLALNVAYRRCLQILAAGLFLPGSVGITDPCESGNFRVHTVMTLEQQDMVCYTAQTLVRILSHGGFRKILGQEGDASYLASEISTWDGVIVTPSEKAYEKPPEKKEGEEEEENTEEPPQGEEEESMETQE
FLAG-ILF2^R2/5/7/9K (Q12905, form named): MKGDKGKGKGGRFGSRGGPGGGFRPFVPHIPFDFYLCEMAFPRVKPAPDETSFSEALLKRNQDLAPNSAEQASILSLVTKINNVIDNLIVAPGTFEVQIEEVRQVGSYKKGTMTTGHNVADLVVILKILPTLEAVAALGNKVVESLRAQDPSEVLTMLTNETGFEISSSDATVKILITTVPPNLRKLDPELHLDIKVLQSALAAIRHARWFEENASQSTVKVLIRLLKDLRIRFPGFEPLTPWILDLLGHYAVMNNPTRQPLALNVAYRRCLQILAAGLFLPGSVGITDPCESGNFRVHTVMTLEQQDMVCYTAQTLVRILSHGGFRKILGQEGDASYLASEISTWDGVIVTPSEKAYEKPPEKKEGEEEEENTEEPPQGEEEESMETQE

These are yes or no findings as the source states them, for the method shown. For part of these data: In cells and extracts the contact can be indirect. Some entries that bind do so weakly or less than the wild type.

One assay has as its target HA-CUL4A (UniProt Q13619). Briefly: co-IP; H1299 cells co-transfected with FLAG-ILF2 or FLAG-ILF2^R2/5/7/9K and HA-CUL4A; anti-HA immunoprecipitation, anti-HA or anti-FLAG immunoblotting.
The target in the next assay is His-PRMT1 (human) (UniProt Q99873). Briefly: pull-down; His-PRMT1 incubated with GST-PRMT6; Ni-NTA pulldown, anti-PRMT6 or anti-PRMT1 immunoblotting; both purified. (In general: Immunoblotting shows a protein as a band on a membrane.)
A further assay has as its target FLAG-CUL4A (UniProt Q13619). Briefly: co-IP; H1299, PRMT1 KO or PRMT6 KO cells co-transfected with FLAG-CUL4A and HA-ILF2; anti-FLAG immunoprecipitation, anti-FLAG or anti-HA immunoblotting.
For assay [1], the target named is FLAG-PRMT6 (human) (UniProt Q96LA8). Briefly: co-IP; anti-FLAG immunoprecipitation (anti-FLAG M2 affinity gel) of extracts of transfected H1299 cells in NP-40 lysis buffer (150 mM NaCl, 50 mM Tris-HCl pH 8, 1% NP-40), 4°C overnight; immunoblotting.
Assay [2] has as its target GST-PRMT6 (human) (UniProt Q96LA8). Briefly: pull-down; GST fusion protein (or GST) incubated with cell extracts containing the HA-tagged protein in the presence of TAT (20 μM) or TAT-1/6i (20 μM); GST pulldown, anti-HA or anti-GST immunoblotting; only the target purified.
The target is the same in assay [3]. Briefly: pull-down; GST or GST-PRMT6 incubated with His-PRMT1; GST pulldown, anti-PRMT1 or anti-GST immunoblotting; both purified.
A further assay has as its target YFPn-FLAG-PRMT6 (human) (UniProt Q96LA8). Briefly: split reporter; BiFC: YFPn and YFPc fusions co-transfected in H1299 cells; YFP signal by fluorescence microscopy.
The target in another assay is YFPc-HA-PRMT6 (human) (UniProt Q96LA8). The description is as above.
The target of assay [4] is FLAG-PRMT1 (human) (UniProt Q99873). Briefly: co-IP; anti-FLAG immunoprecipitation (anti-FLAG M2 affinity gel) of extracts of transfected H1299 cells in NP-40 lysis buffer (150 mM NaCl, 50 mM Tris-HCl pH 8, 1% NP-40), 4°C overnight; immunoblotting.
The target is the same in assay [5]. Briefly: co-IP; anti-FLAG immunoprecipitation of extracts of H1299 PRMT6 KO or PRMT1 KO cells expressing the FLAG-tagged bait; NP-40 lysis buffer; immunoblotting.
Assay [6] deals with FLAG-PRMT6 (human) (UniProt Q96LA8). The assay is described as above.
For assay [7], the target named is FLAG-ILF2 (human) (UniProt Q12905). Briefly: co-IP; anti-FLAG immunoprecipitation (anti-FLAG M2 affinity gel) of extracts of transfected H1299 cells in NP-40 lysis buffer (150 mM NaCl, 50 mM Tris-HCl pH 8, 1% NP-40), 4°C overnight; immunoblotting.
In assay [8] the target is endogenous PRMT6 (human (endogenous in H1299)) (UniProt Q96LA8). Briefly: co-IP; anti-PRMT6 immunoprecipitation of extracts of H1299 or PRMT1 KO cells; anti-PRMT1 or anti-PRMT6 immunoblotting; endogenous proteins.
Assay [9] has as its target FLAG-ILF2 (human) (UniProt Q12905). Briefly: co-IP; anti-FLAG immunoprecipitation of extracts of H1299 PRMT6 KO or PRMT1 KO cells expressing the FLAG-tagged bait; NP-40 lysis buffer; immunoblotting.

Take “FLAG-ILF2^R2/5/7/9K (from UniProt Q12905 1-390)”: the binding result with HA-CUL4A is “binds”.

Turning to “GST-PRMT6 (from UniProt Q96LA8 1-375) (enzyme)”, the binding result with His-PRMT1 (human) is recorded as “binds”.

Consider HA-ILF2 (from UniProt Q12905 1-390), for which the binding result with FLAG-CUL4A is recorded as “binds”.

“HA-PRMT1 (from UniProt Q99873 1-371) (enzyme)”: the binding result with FLAG-PRMT6 (human) [1] was “binds”.

“HA-PRMT6 (from UniProt Q96LA8 1-375) (enzyme)”: the binding entry with GST-PRMT6 (human) [2] is “binds”.

With “His-PRMT1 (from UniProt Q99873 1-371) (enzyme)”, in the assay with GST-PRMT6 (human) [3], the binding entry was “binds”.

With “YFPc-HA-PRMT1 (from UniProt Q99873 1-371) (enzyme)”, in the assay with YFPn-FLAG-PRMT6 (human), the binding result is recorded as “binds”.

As for “YFPn-FLAG-PRMT6 (from UniProt Q96LA8 1-375) (enzyme)”, the binding entry with YFPc-HA-PRMT6 (human) is on record as “binds”.

For “endogenous ILF2 (from UniProt Q12905 1-390)”, the binding entry in the assay with FLAG-PRMT1 (human) [4] was “binds”; with FLAG-PRMT6 (human) [1], “binds”; in the assay with FLAG-PRMT1 (human) [5], “binds weakly”; with FLAG-PRMT6 (human) [6], “binds weakly”.

As for “endogenous PRMT1 (from UniProt Q99873 1-371) (enzyme)”, the binding entry in the assay with FLAG-PRMT6 (human) [1] is reported as “binds”; with FLAG-ILF2 (human) [7], “binds”; in assay [8], “binds”; in the assay with FLAG-ILF2 (human) [9], “binds weakly”.

Regarding “endogenous PRMT6 (from UniProt Q96LA8 1-375) (enzyme)”, the binding entry in the assay with FLAG-ILF2 (human) [7] was “binds”; with FLAG-ILF2 (human) [9], “binds weakly”.
